Source: PubChem BioAssay AID1508597 (Cure First, 2020)

Aim: 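Knock-downs altering ovarian cancer cell survival with or without PARP inhibitor rucaparib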 (primary screen)
Cell system: human ovarian carcinoma lines grown from tumours: OCI-P5x (papillary serous) and OCI-C5x (clear cell)
Knock-down reagent: siRNA pool against human genes, 1.25 pmol siRNA per well
Duration: 72 h or 96 h, depending on the cell culture
Conditions: rucaparib 20 µM (about IC30) or vehicle, present until read-out
Rucaparib or vehicle: Vehicle
Cell line: OCI-P5x (serous)
Measurement: 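ATP luminescence measured at 72 or 96 h according to the culture, then normalised and expressed as percent viability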
Scale: viability, normalised: higher = more viable cells remaining
Call rule: 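a well counts as a hit if its normalised viability is under 80 percent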
Calls: active = viability under 80%; inactive = viability 80% or more
This is an unselected part of the about 2,100 reagents, under one of the conditions tested. 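Calls flag viability under 80% in either arm, not effects specific to rucaparib; the reference for percent is not stated.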 A number with no mark means an inactive call. A reagent listed more than once was tested more than once; the source does not tell the runs apart. Not given: the 100% reference.

DHX37 (DEAH-box helicase 37), technical replicate 1 showed viability, normalised (%) = 59.8 (active). DHX37 (DEAH-box helicase 37), technical replicate 2 showed viability, normalised (%) = 66.7 (active). With DHX37 (DEAH-box helicase 37), technical replicate 3, the entry reads viability, normalised (%) = 69.1 (active). For PARP4 (poly(ADP-ribose) polymerase family member 4), technical replicate 1, the entry reads viability, normalised (%) = 55.2 (active). With PARP4 (poly(ADP-ribose) polymerase family member 4), technical replicate 1 the deposit lists viability, normalised (%) = 89.5. With PARP4 (poly(ADP-ribose) polymerase family member 4), technical replicate 2, the entry reads viability, normalised (%) = 66.1 (active).

PARP4 (poly(ADP-ribose) polymerase family member 4), technical replicate 2 scored viability, normalised (%) = 84.4. For PARP4 (poly(ADP-ribose) polymerase family member 4), technical replicate 3 the deposit lists viability, normalised (%) = 85. With PARP4 (poly(ADP-ribose) polymerase family member 4), technical replicate 3, the values are viability, normalised (%) = 66.7 (active). L3MBTL1 (L3MBTL histone methyl-lysine binding protein 1), technical replicate 1 gave viability, normalised (%) = 41.9 (active). L3MBTL1 (L3MBTL histone methyl-lysine binding protein 1), technical replicate 2 scored viability, normalised (%) = 55.6 (active). L3MBTL1 (L3MBTL histone methyl-lysine binding protein 1), technical replicate 3 gave viability, normalised (%) = 49.8 (active).

ARSA (arylsulfatase A), technical replicate 1 scored viability, normalised (%) = 93.8. ARSA (arylsulfatase A), technical replicate 2 scored viability, normalised (%) = 93.1. For ARSA (arylsulfatase A), technical replicate 3 the deposit lists viability, normalised (%) = 86. For PRMT8 (protein arginine methyltransferase 8), technical replicate 1, the entry reads viability, normalised (%) = 43.8 (active). For PRMT8 (protein arginine methyltransferase 8), technical replicate 2, the values are viability, normalised (%) = 28.3 (active). For PRMT8 (protein arginine methyltransferase 8), technical replicate 3 the deposit lists viability, normalised (%) = 81.7.

For MAP3K19 (mitogen-activated protein kinase kinase kinase 19), technical replicate 1, the entry reads viability, normalised (%) = 57.3 (active). MAP3K19 (mitogen-activated protein kinase kinase kinase 19), technical replicate 2 gave viability, normalised (%) = 92.5. MAP3K19 (mitogen-activated protein kinase kinase kinase 19), technical replicate 3 gave viability, normalised (%) = 93.4. For BRD4 (bromodomain containing 4), technical replicate 1, the entry reads viability, normalised (%) = 57.5 (active). With BRD4 (bromodomain containing 4), technical replicate 1, the values are viability, normalised (%) = 64.5 (active). BRD4 (bromodomain containing 4), technical replicate 1 gave viability, normalised (%) = 138.

For BRD4 (bromodomain containing 4), technical replicate 1 the deposit lists viability, normalised (%) = 71.1 (active). BRD4 (bromodomain containing 4), technical replicate 2 scored viability, normalised (%) = 56.5 (active). BRD4 (bromodomain containing 4), technical replicate 2 showed viability, normalised (%) = 69.2 (active). With BRD4 (bromodomain containing 4), technical replicate 2, the entry reads viability, normalised (%) = 64.1 (active). With BRD4 (bromodomain containing 4), technical replicate 2, the entry reads viability, normalised (%) = 132. With BRD4 (bromodomain containing 4), technical replicate 3 the deposit lists viability, normalised (%) = 74.4 (active).

For BRD4 (bromodomain containing 4), technical replicate 3, the values are viability, normalised (%) = 57.2 (active). With BRD4 (bromodomain containing 4), technical replicate 3 the deposit lists viability, normalised (%) = 107. BRD4 (bromodomain containing 4), technical replicate 3 scored viability, normalised (%) = 66.9 (active).

Entries above whose target name starts with L or l:
L3MBTL1 (L3MBTL histone methyl-lysine binding protein 1), technical replicate 1 — viability, normalised (%) = 41.9 (active)
L3MBTL1 (L3MBTL histone methyl-lysine binding protein 1), technical replicate 2 — viability, normalised (%) = 55.6 (active)
L3MBTL1 (L3MBTL histone methyl-lysine binding protein 1), technical replicate 3 — viability, normalised (%) = 49.8 (active)
